Drawing on PMC12622526, this text covers binding for one molecule.

These are yes or no findings as the source states them, for the method shown. In cells and extracts the contact can be indirect. These calls come from enrichment with a bait or labelling near it, and not all partners need be listed. Sequences can lack the tags named with a protein.

For the test, the target named is COA4‐Flag (human cytochrome c oxidase assembly factor 4), transfected in A549 cells (human) (UniProt Q9NYJ1). In words: affinity purification with mass spectrometry; A549 cells transfected with Flag‐COA4 for 48 h; anti‐FLAG immunoprecipitation (Pierce Co‐IP Kit), SDS‐PAGE bands analysed by LC‐MS/MS.

B1: SLC25A3 (protein, UniProt Q00325 50-362)
chain: AVEEQYSCDYGSGRFFILCGLGGIISCGTTHTALVPLDLVKCRMQVDPQKYKGIFNGFSVTLKEDGVRGLAKGWAPTFLGYSMQGLCKFGFYEVFKVLYSNMLGEENTYLWRTSLYLAASASAEFFADIALAPMEAAKVRIQTQPGYANTLRDAAPKMYKEEGLKAFYKGVAPLWMRQIPYTMMKFACFERTVEALYKFVVPKPRSECSKPEQLVVTFVAGYIAGVFCAIVSHPADSVVSVLNKEKGSSASLVLKRLGFKGVWKGLFARIIMIGTLTALQWFIYDSVKVYFRLPRPPPPEMPESLKKKLGLTQ
Take B1: the binding result was “binds”.
